Results published in paper PMC11362013, “Mechanism for controlled assembly of transcriptional condensates by Aire” (Nature Immunology, 2024).
No constants are given. Whether binding was seen depends on the method and setting. In cells and extracts the contact can be indirect. Binding calls can cover weak binding; strength is not graded here.

Protein sequences, listed by entry. Tags and fused reporters are not part of them. Lines headed by an entry give the natural chain unless they say otherwise; changes in a name come on top.
UniProt Q9Z0E3: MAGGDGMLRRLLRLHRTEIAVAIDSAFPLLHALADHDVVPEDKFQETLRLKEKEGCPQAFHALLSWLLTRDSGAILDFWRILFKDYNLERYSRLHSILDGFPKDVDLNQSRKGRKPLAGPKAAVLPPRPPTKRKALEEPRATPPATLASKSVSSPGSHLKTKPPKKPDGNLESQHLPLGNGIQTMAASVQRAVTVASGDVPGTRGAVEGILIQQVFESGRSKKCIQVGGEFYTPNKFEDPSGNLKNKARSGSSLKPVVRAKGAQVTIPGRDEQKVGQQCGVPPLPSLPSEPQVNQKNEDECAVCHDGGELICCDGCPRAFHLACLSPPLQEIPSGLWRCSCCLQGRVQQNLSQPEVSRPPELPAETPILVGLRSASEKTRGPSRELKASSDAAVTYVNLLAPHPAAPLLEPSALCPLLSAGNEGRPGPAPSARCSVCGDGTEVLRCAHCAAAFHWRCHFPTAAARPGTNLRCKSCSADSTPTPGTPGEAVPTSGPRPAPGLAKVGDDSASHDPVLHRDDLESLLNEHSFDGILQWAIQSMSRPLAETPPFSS
UniProt Q09472: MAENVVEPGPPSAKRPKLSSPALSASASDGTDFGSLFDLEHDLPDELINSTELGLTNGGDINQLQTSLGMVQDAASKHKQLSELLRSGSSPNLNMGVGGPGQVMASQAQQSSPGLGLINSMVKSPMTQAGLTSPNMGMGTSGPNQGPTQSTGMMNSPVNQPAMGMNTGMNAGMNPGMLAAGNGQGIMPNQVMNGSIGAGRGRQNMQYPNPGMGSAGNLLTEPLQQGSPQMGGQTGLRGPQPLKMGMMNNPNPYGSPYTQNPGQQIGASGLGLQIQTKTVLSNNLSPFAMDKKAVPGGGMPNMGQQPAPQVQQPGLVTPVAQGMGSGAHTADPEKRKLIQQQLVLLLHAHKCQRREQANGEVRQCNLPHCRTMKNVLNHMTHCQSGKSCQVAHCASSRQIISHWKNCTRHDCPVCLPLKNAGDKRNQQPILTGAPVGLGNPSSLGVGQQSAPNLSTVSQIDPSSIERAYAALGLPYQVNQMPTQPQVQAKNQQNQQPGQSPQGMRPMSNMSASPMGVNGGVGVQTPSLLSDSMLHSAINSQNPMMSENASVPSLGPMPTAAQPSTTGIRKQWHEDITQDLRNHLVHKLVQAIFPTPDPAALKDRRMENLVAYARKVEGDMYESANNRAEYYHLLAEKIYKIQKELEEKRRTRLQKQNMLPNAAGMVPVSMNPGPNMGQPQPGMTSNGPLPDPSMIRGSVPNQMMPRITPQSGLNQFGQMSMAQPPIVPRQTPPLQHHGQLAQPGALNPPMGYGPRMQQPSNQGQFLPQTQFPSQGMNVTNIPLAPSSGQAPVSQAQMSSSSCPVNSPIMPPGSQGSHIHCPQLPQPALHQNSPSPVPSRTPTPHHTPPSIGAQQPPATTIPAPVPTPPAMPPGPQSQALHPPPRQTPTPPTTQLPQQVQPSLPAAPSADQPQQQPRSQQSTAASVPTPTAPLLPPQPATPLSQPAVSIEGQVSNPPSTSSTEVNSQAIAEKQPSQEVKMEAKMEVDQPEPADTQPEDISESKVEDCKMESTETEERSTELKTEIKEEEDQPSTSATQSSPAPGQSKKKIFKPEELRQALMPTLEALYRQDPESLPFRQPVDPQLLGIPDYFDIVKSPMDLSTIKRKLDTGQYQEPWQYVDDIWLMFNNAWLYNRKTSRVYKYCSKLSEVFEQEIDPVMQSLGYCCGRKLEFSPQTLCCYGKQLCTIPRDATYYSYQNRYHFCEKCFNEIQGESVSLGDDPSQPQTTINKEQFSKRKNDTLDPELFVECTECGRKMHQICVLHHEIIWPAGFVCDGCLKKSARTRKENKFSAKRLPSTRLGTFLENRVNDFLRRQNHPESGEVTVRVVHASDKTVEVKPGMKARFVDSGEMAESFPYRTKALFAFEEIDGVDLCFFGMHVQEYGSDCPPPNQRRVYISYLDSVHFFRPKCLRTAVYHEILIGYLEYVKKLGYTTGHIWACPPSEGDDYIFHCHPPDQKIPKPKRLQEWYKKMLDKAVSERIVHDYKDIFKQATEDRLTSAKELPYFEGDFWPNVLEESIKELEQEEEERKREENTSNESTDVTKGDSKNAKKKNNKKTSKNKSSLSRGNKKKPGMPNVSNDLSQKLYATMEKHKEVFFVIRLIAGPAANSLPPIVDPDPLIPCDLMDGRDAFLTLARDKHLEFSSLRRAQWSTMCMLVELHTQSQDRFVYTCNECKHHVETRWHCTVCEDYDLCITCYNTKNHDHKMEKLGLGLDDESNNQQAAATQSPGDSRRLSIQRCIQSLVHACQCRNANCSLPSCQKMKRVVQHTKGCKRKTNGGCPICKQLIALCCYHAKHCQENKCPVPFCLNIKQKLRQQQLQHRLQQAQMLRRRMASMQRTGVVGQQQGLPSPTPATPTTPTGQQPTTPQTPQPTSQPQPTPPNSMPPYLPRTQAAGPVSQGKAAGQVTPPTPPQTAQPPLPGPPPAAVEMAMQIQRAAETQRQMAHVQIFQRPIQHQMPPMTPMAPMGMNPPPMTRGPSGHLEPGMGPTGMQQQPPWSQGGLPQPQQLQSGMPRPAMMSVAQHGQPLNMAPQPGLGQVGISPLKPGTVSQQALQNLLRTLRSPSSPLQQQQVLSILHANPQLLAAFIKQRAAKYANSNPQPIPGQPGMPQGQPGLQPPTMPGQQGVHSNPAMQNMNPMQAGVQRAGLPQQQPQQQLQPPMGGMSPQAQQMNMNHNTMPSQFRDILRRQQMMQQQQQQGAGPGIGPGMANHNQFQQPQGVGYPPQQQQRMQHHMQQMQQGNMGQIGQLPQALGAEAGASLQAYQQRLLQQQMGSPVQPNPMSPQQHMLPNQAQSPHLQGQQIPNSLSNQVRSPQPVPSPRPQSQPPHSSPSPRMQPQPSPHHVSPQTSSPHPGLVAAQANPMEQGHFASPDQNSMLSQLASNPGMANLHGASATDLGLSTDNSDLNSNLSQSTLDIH

Key:
Experiment in all cases: pull-down; His6-GST-mouse Aire CTT-FLAG variants on glutathione Sepharose beads (SEC Buffer: 25 mM HEPES pH 7.5, 100 mM NaCl, 5 mM BME; blocked with 0.1% BSA), nuclear extracts of 293T cells transfected with HA-p300 variants, 1 h, 4 °C; western blot; only the target purified
[1] = target: His6-GST-mouse Aire CTT-FLAG ΔCTT.R1 (mouse) (UniProt Q9Z0E3)
[2] = target: His6-GST-mouse Aire CTT-FLAG ΔCTT.R3 (mouse) (UniProt Q9Z0E3)
[3] = target: His6-GST-mouse Aire CTT-FLAG ΔCTT.R2 (mouse) (UniProt Q9Z0E3)

binding [1]: binds | binding [2]: binds | binding [3]: binds
Substance: HA-p300 (from UniProt Q09472 1-2414)
